Source: PubChem BioAssay (NCI)
What follows is the remainder of the data, with few or none of the hits. The source made the active and inactive calls. Rule as the data show it: active = growth inhibition above about 70%; inactive = the rest.

Legend:
[1] = NCI Yeast Anticancer Drug Screen. Data for the rad52 strain (AID 147);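 also: 0% = growth of vehicle-treated control cultures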; conditions: S. cerevisiae rad52 mutant growth inhibition, hits give high values
Outline: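 Screen used a yeast mutant impaired in DNA repair. After compound exposure, growth was measured. Values reflect inhibition compared with vehicle-treated cells.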

[2] = NCI Yeast Anticancer Drug Screen. Data for the wt1 strain (AID 149);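 also: 0% = growth of vehicle-treated wt1 cultures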; conditions: S. cerevisiae wt1 strain (SPY 50644) growth inhibition, hits give high values
Outline: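 The wt1 strain was treated with compounds, and growth was compared with vehicle-treated cultures to give inhibition.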

[3] = NCI Yeast Anticancer Drug Screen. Data for the rad50EPP+ strain (AID 151);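 also: 0% = growth of vehicle-treated control cultures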; conditions: S. cerevisiae rad50 mutant strain, hits give high values
Outline: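 Exposing the rad50EPP+ strain to each compound, growth was compared with vehicle-only cultures to give inhibition.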

[4] = NCI Yeast Anticancer Drug Screen. Data for the mgt1 strain (AID 153); conditions: S. cerevisiae mgt1 mutant growth inhibition, hits give high values
Outline: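 Genetically defined yeast (mgt1) treated with compound; inhibition of growth expressed against vehicle-treated controls.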

[5] = NCI Yeast Anticancer Drug Screen. Data for the rad14 strain (AID 159);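 also: 0% = growth of vehicle-treated control cultures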; conditions: S. cerevisiae rad14 strain growth inhibition, hits give high values
Outline: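 Readout: yeast growth inhibition, referenced to vehicle-only cultures. Strain bears a defined alteration in DNA damage repair.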

[6] = NCI Yeast Anticancer Drug Screen. Data for the CLN2oe strain (AID 163);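 also: 0% = growth of vehicle-only control cultures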; conditions: S. cerevisiae CLN2oe strain, hits give high values
Outline: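 Values reflect how much compound exposure reduced yeast growth, referenced to vehicle-exposed cells. Assay organism is a strain with a defined genetic change affecting cell-cycle control.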

[7] = NCI Yeast Anticancer Drug Screen. Data for the wt2 strain (AID 169);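 also: 0% = growth of vehicle-treated yeast cultures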; conditions: S. cerevisiae wt2 strain growth inhibition, hits give high values
Outline: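 Values express reduction in yeast growth under compound treatment, referenced to vehicle-treated cells.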

[8] = NCI Yeast Anticancer Drug Screen. Data for the mlh1 strain (AID 171);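 also: 0% = growth of vehicle-treated control cultures of the same strain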; conditions: S. cerevisiae mlh1 strain growth inhibition, hits give high values
Outline: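 Steps: expose the defined-mutant yeast strain to compound; expose a parallel culture to vehicle; measure growth; express compound effect as inhibition relative to the vehicle culture.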

[9] = NCI Yeast Anticancer Drug Screen. Data for the sgs1 strain (AID 173);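 also: 0% = growth of vehicle-only control cultures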; conditions: S. cerevisiae sgs1 mutant, hits give high values
Outline: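 Treat defined-mutant yeast with compound; measure growth; calculate inhibition relative to vehicle-treated cells.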

[10] = NCI Yeast Anticancer Drug Screen. Data for the rad18 strain (AID 177); conditions: S. cerevisiae rad18 mutant growth inhibition, hits give high values
Outline: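 A genetically defined yeast mutant impaired in DNA damage repair was treated with test compounds, then its growth was measured against cultures receiving vehicle alone.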

Measured: growth inhibition

O=C1OC(c2cccc([N+](=O)[O-])c2)Sc2ccccc21 (stereo not given)
inactive: [1]; at 1.2 µM -1% | [1]; at 3.7 µM -1% | [1]; at 11.0 µM 2% | [1]; at 33.0 µM 8% | [1]; at 100.0 µM 0% | [2]; at 1.2 µM -2% | [2]; at 3.7 µM -1% | [2]; at 11.0 µM 0% | [2]; at 33.0 µM 4% | [2]; at 100.0 µM 2% | [3]; at 1.2 µM -1% | [3]; at 3.7 µM 8% | [3]; at 11.0 µM 15% | [3]; at 33.0 µM 15% | [3]; at 100.0 µM 11% | [4]; at 1.2 µM 1% | [4]; at 3.7 µM 4% | [4]; at 11.0 µM 20% | [4]; at 33.0 µM 2% | [4]; at 100.0 µM -31% | [5]; at 1.2 µM 0% | [5]; at 3.7 µM 1% | [5]; at 11.0 µM 6% | [5]; at 33.0 µM 6% | [5]; at 100.0 µM 5% | [6]; at 1.2 µM 1% | [6]; at 3.7 µM 1% | [6]; at 11.0 µM 3% | [6]; at 33.0 µM 3% | [6]; at 100.0 µM 2% | [7]; at 1.2 µM -3% | [7]; at 3.7 µM -2% | [7]; at 11.0 µM 0% | [7]; at 33.0 µM 5% | [7]; at 100.0 µM 1% | [8]; at 1.2 µM -1% | [8]; at 3.7 µM -2% | [8]; at 11.0 µM -1% | [8]; at 33.0 µM 2% | [8]; at 100.0 µM 5% | [9]; at 1.2 µM -2% | [9]; at 3.7 µM -1% | [9]; at 11.0 µM 1% | [9]; at 33.0 µM 4% | [9]; at 100.0 µM 3% | [10]; at 1.2 µM -3% | [10]; at 3.7 µM 3% | [10]; at 11.0 µM 3% | [10]; at 33.0 µM 4% | [10]; at 100.0 µM 2%

CCOC(=O)Cc1[nH]c(C(=O)OCC)c(C)c1C(=O)OCC
inactive: [2]; at 1.2 µM -2% | [2]; at 3.7 µM 1% | [2]; at 11.0 µM -4% | [2]; at 33.0 µM 1% | [2]; at 100.0 µM -3% | [3]; at 1.2 µM 4% | [3]; at 3.7 µM 7% | [3]; at 11.0 µM 11% | [3]; at 33.0 µM 14% | [3]; at 100.0 µM 18% | [5]; at 1.2 µM -3% | [5]; at 3.7 µM -2% | [5]; at 11.0 µM -4% | [5]; at 33.0 µM -3% | [5]; at 100.0 µM -2% | [6]; at 1.2 µM 0% | [6]; at 3.7 µM -8% | [6]; at 11.0 µM -1% | [6]; at 33.0 µM -2% | [6]; at 100.0 µM 1% | [7]; at 1.2 µM -2% | [7]; at 3.7 µM -2% | [7]; at 11.0 µM -5% | [7]; at 33.0 µM 1% | [7]; at 100.0 µM -2% | [8]; at 1.2 µM 2% | [8]; at 3.7 µM -1% | [8]; at 11.0 µM 0% | [8]; at 33.0 µM -1% | [8]; at 100.0 µM 0% | [9]; at 1.2 µM -2% | [9]; at 3.7 µM -2% | [9]; at 11.0 µM 0% | [9]; at 33.0 µM 2% | [9]; at 100.0 µM 2% | [10]; at 1.2 µM -2% | [10]; at 3.7 µM -6% | [10]; at 11.0 µM -8% | [10]; at 33.0 µM -5% | [10]; at 100.0 µM -5%

O=C(O)CCc1c2ccc(=O)c(O)c-2oc2c(O)c(O)ccc12
inactive: [1]; at 1.2 µM -3% | [1]; at 3.7 µM -6% | [1]; at 11.0 µM -6% | [1]; at 33.0 µM -5% | [1]; at 100.0 µM 2% | [2]; at 1.2 µM 1% | [2]; at 3.7 µM 1% | [2]; at 11.0 µM 5% | [2]; at 33.0 µM 8% | [2]; at 100.0 µM 9% | [3]; at 1.2 µM -7% | [3]; at 3.7 µM -14% | [3]; at 11.0 µM -31% | [3]; at 33.0 µM -39% | [3]; at 100.0 µM -35% | [4]; at 1.2 µM 0% | [4]; at 3.7 µM 0% | [4]; at 11.0 µM 0% | [4]; at 33.0 µM 1% | [4]; at 100.0 µM 2% | [5]; at 1.2 µM -1% | [5]; at 3.7 µM -8% | [5]; at 11.0 µM -16% | [5]; at 33.0 µM -49% | [5]; at 100.0 µM 1% | [6]; at 1.2 µM 1% | [6]; at 3.7 µM -1% | [6]; at 11.0 µM -12% | [6]; at 33.0 µM -20% | [6]; at 100.0 µM -15% | [7]; at 1.2 µM -1% | [7]; at 3.7 µM 1% | [7]; at 11.0 µM 1% | [7]; at 33.0 µM 10% | [7]; at 100.0 µM 13% | [8]; at 1.2 µM -1% | [8]; at 3.7 µM 1% | [8]; at 11.0 µM -2% | [8]; at 33.0 µM -14% | [8]; at 100.0 µM 2% | [9]; at 1.2 µM 1% | [9]; at 3.7 µM 2% | [9]; at 11.0 µM 3% | [9]; at 33.0 µM 9% | [9]; at 100.0 µM 13% | [10]; at 1.2 µM -17% | [10]; at 3.7 µM -11% | [10]; at 11.0 µM -51% | [10]; at 33.0 µM -57% | [10]; at 100.0 µM -7%

Cc1ccc(N2C(=O)/C(=C3\Sc4c(nc(C)[nH]c4=O)N3c3ccccc3)SC2=S)cc1
inactive: [1]; at 1.2 µM 1% | [1]; at 3.7 µM -1% | [1]; at 11.0 µM -7% | [1]; at 33.0 µM -7% | [1]; at 100.0 µM -9% | [2]; at 1.2 µM 0% | [2]; at 3.7 µM -2% | [2]; at 11.0 µM -1% | [2]; at 33.0 µM 0% | [2]; at 100.0 µM -2% | [3]; at 1.2 µM -1% | [3]; at 3.7 µM 0% | [3]; at 11.0 µM -1% | [3]; at 33.0 µM -3% | [3]; at 100.0 µM -7% | [5]; at 1.2 µM -1% | [5]; at 3.7 µM 4% | [5]; at 11.0 µM 0% | [5]; at 33.0 µM -2% | [5]; at 100.0 µM -2% | [6]; at 1.2 µM -2% | [6]; at 3.7 µM 2% | [6]; at 11.0 µM 5% | [6]; at 33.0 µM 3% | [6]; at 100.0 µM 2% | [7]; at 1.2 µM 0% | [7]; at 3.7 µM 1% | [7]; at 11.0 µM 1% | [7]; at 33.0 µM 0% | [7]; at 100.0 µM 0% | [8]; at 1.2 µM 0% | [8]; at 3.7 µM -4% | [8]; at 11.0 µM -9% | [8]; at 33.0 µM -7% | [8]; at 100.0 µM 8% | [9]; at 1.2 µM -2% | [9]; at 3.7 µM -3% | [9]; at 11.0 µM -4% | [9]; at 33.0 µM -6% | [9]; at 100.0 µM -9% | [10]; at 1.2 µM -2% | [10]; at 3.7 µM -2% | [10]; at 11.0 µM -8% | [10]; at 33.0 µM -19% | [10]; at 100.0 µM -33%
